# Assay results as given in patent US20240124539A1, “CROSSLINKED HELIX DIMER MIMICS OF SOS AND METHODS OF USING SAME” (NEW YORK UNIVERSITY, priority 2020, published 2024).
# At least one peptide structure holds a part that was inferred or is arguable (an end, a ring closure or a residue). Residues, ends and D or L forms follow the SMILES beside them.
# Tests used:
# Type in all cases: cell-based
# [1] = system: Ras wild type and mutant cell lines; experiment: MTT cell viability assay; conditions: 72 hours, in presence of serum; oncogenic Ras mutant cell lines in comparison to wild-type Ras HeLa control
# Procedure: Cell viability was monitored using the MTT (Sigma-Aldrich, M2128) or CellTiter-Glo Luminescent cell viability assay (Promega).
# Cell viability was monitored using the MTT (Sigma-Aldrich, M2128) […] cell viability assay. Cells were plated in clear 96-well plates at 2000 cells/well and allowed to affix overnight at 37° C. Each well is gently aspirated and washed with serum-free medium before introducing peptide inhibitors dissolved in complete medium with 0.5% DMSO (v/v final) to desired concentrations (90 μL/well). The cells are incubated in the presence of peptide for 72 hours at 37° C. MTT reagent solution is composed of Thiazolyl Blue Tetrazolium Bromide dissolved in Dulbecco's Phosphate Buffered Saline (DPBS), pH 7.4 to a concentration of 5 mg/mL and subsequently sterile-filtered into a light-protected container. MTT reagent was added to each well (0.45 mg/mL/well final). The cells are incubated at 37° C. for an additional 4 hours. Upon careful removal of the supernatant, 150 μL DMSO (solubilization solution) is added to each well and mixed to ensure complete solubilization and release of the insoluble purple formazan precipitate into solution. Absorbance values are recorded with a Synergy HT Multi-Detection Microplate Reader (BioTek) at 570 nm.
# H358 cells = experiment: CellTiter-Glo luminescent cell viability assay, H358; conditions: mutant Ras H358 relative to wild-type Ras control HeLa, 72 hours
# Ras-GTP in H358 cells = experiment: Ras activation assay (Raf1 RBD pulldown); conditions: 10 μM, 6 hours
# [2] = system: ERK phosphorylation in HeLa cells; experiment: ERK activation assay, HeLa; conditions: HeLa cells (wild-type Ras), 1, 5, 10 μM, 6 hours
# Procedure: H358 or HeLa cells were initially seeded in 6-well plates (1x10^6 cells/well) and allowed to attach overnight. The cells were then incubated with indicated peptides dissolved in complete medium at specified concentrations for 6 hours at 37° C. The cells were washed twice with ice-cold PBS and then lysed in cold RIPA buffer (200 μL/well) containing 25 mM Tris-HCl, pH 7.6, 150 mM NaCl, 1% NP-40, 1% sodium doexycholic acid, 0.1% SDS, Roche Complete Protease inhibitor cocktail (1X, Sigma-Aldrich, P2714), and Roche PhosSTOP phosphatase inhibitor cocktail tablets (1X, Sigma-Aldrich, 4906845001). The cells are kept on ice for 5 minutes with occasional swirling for uniform spreading. Cell lysates are generated with a cell scraper, transferred to a microcentrifuge tube, and centrifuged at 13,000 rpm for 10 minutes at 4° C. The clarified supernatant was collected, and the total protein concentration was measured by Pierce BCA protein assay. The lysates were subjected to SDS-PAGE (10 μg/lane loading) and Western Blot analysis via immunoblotting. Primary antibodies include Phospho-p44/42 MAPK (Erk1/2) (Thr202/Tyr204) (Cell Signaling 4370), p44/42 MAPK (Erk1/2) (Cell Signaling 4695), Ras (Abcam ab 108602), and a-tubulin (Cell Signaling 2144). Secondary antibodies include anti-rabbit IgG, HRP-linked antibody (Cell Signaling 7074P2, 1:2000). […]
structure (smiles),measurement,setting,value
"CC[C@H](C)[C@H](NC(=O)[C@H](Cc1c[nH]c2ccccc12)NC(C)=O)C(=O)NCC(=O)N[C@@H](CCCNC(=N)N)C(=O)N[C@@H](CC(C)C)C(=O)N[C@@H](CSCc1ccc(COCc2ccc(CSC[C@H](NC(=O)[C@H](CC(C)C)NC(=O)[C@H](CCCNC(=N)N)NC(=O)[C@H](C)NC(=O)[C@H](CC(C)C)NC(=O)[C@H](CCC(=O)O)NC(=O)[C@H](CCCNC(=N)N)NC(=O)[C@H](CCC(=O)O)NC(=O)[C@H](CC(C)C)NC(=O)[C@H](CCC(=O)O)NC(=O)[C@H](CCCNC(=N)N)NC(=O)[C@H](CC(C)C)NC(=O)[C@H](CCCNC(=N)N)NC(=O)[C@H](Cc3c[nH]c4ccccc34)NC(=O)[C@H](C)NC(=O)[C@H](CC(C)C)NC(C)=O)C(N)=O)cc2)cc1)C(=O)N[C@H](C(=O)N[C@@H](CCC(=O)O)C(=O)N[C@H](C(=O)N[C@@H](CCCCNC(=N)N)C(=O)N[C@@H](CCCNC(=N)N)C(=O)N[C@@H](CC(C)C)C(=O)N[C@@H](CCCNC(=N)N)C(=O)N[C@@H](CC(N)=O)C(=O)NCC(=O)N[C@@H](CC(N)=O)C(N)=O)[C@@H](C)CC)[C@@H](C)O [CHC^Sos-5] (HELM PEPTIDE1{[ac].L.A.W.R.L.R.E.L.E.R.E.L.A.R.L.C.[am]}|PEPTIDE2{[ac].W.I.G.R.L.C.T.E.I.[N=C(N)NCCCC[C@H](N[*:1])C(=O)[*:2]].R.L.R.N.G.N.[am]}|CHEM1{[c1cc(C[*:1])ccc1COCc1ccc(C[*:2])cc1]}$PEPTIDE1,CHEM1,17:R3-1:R1|PEPTIDE2,CHEM1,7:R3-1:R2$$$V2.0)",cell viability (MTT),[1],concentration-dependent toxicity
same,cell viability (CellTiter-Glo),H358 cells,selective toxicity
same,Ras-GTP level (printed: extent of Ras phosphorylation),Ras-GTP in H358 cells,significantly reduced
same,effect on ERK phosphorylation,[2],little effect
